Some results were stated once for a whole list of compounds, not compound by compound.
Test system: patients
Test: Compounded topical morphine sulfate and tramadol, inventor's clinical experience (nuchal and peripheral application)
Details: for Pain reduction in treated patients: one time application at the nuchal region, 2.5 mg morphine sulfate, 40 mg tramadol
[1] = compounded for topical administration, initial results

**Q.** Which Reduction in pain [1] does the source give for `CN1CC[C@]23c4c5ccc(O)c4O[C@H]2[C@@H](O)C=C[C@H]3[C@H]1C5.O=S(=O)(O)O` [morphine sulfate] here?
**A.** 30-80%

**Q.** And the “time to significant pain relief” value [1]?
**A.** 15 to 20 min

**Q.** What about the “Pain reduction in treated patients” value of the same compound?
**A.** 30-60%

**Q.** Which Reduction in pain [1] does the source give for `COc1cccc(C2(O)CCCCC2CN(C)C)c1` (stereo not shown) [tramadol] here?
**A.** 30-80%

**Q.** What about the “duration of pain relief” value [1] of the same compound?
**A.** 4 to 6 h

**Q.** What about the “time to significant pain relief” value [1] of the same compound?
**A.** 15 to 20 min

**Q.** What about the “Pain reduction in treated patients” value of the same compound?
**A.** 30-60%
